The values below come from PubChem BioAssay AID651660 (Broad Institute, 2012).

By UniProt entry, the sequences of proteins in these tests, tags left out. Where a name states a change or a piece, a line headed by the entry shows the natural chain unless it says otherwise.
UniProt P43351: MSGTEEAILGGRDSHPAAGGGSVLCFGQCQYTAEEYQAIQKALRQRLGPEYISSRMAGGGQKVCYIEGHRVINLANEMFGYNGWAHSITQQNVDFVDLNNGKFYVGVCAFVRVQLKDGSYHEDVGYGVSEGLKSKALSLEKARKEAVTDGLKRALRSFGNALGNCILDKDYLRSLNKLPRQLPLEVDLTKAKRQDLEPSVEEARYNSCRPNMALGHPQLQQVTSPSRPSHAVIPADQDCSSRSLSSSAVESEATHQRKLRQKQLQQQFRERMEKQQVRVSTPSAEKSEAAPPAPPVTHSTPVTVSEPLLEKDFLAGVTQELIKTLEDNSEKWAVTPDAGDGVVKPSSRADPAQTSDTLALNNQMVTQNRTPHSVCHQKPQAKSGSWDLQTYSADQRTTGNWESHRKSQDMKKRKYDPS

Among all 1,900 compounds or so, about 15 (0.8%) were called active.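 The calls were made as follows: active = every replicate shows at least 50% inhibition; inconclusive = mean inhibition at least 50% but some replicate below; inactive = the rest.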 The list shows a part of the results. Residues, ends and D or L forms follow the SMILES beside them. *: point of attachment. Boc = CC(C)(C)OC(=O)*

A word on the inhibition: it is the relative decrease from the control value, in per cent.

For the test, the target named is DNA repair protein RAD52 homolog (Homo sapiens) (UniProt P43351). Put plainly: RAD52 ssDNA annealing inhibitors, primary screen, biochemical, FRET, single point (AID 651660).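 Also: 0% = median of neutral control wells and 100% = median of positive control wells.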 Particulars: Recombinant RAD52 ssDNA annealing, FRET fluorescence, 30 min; at 18.7 µM; hits give high values.
As to `O=c1ccc2c(o1)/C(=C/C=C(Cl)Cl)CCC2`, the inhibition is inactive: -32.2%.

For `O=c1c(-c2ccc3c(c2)OCCO3)coc2cc(OC3OC(CO)C(O)C(O)C3O)ccc12` (centres undefined), the inhibition was inactive: 2.13%.

For the compound `Cc1cccc(N2CCN(C(=S)c3ccccc3)CC2)c1`, the inhibition is inactive: -9.38%.

With `CC(C)CN1CCN(Cc2ccc(C#CC(C)(C)O)cc2)CC1CCO` (centres undefined), the inhibition is inactive: 0.98%.

For the compound `Nc1nc2ccc(OC(F)(F)F)cc2s1`, the inhibition was inactive: -0.0755%.

In the case of `COc1ccc2c(c1)c(CC(=O)O)c(C)n2C(=O)c1ccc(Cl)cc1`, the inhibition was inactive: -6.07%.

With `CCc1cccc2c1NC1(CCCC1)CC2C` (centres undefined), the inhibition is inactive: 5.29%.

Regarding `O=C(COc1ccc2ccc(=O)oc2c1)c1ccccc1`, the inhibition was inactive: 2.43%.

Take `C/C(=N\NC(=O)c1ccccc1[N+](=O)[O-])c1ccc(Br)s1`: the inhibition is inactive: -17.1%.

As to `COc1ccc(OCc2cccc(C(=O)NN)c2)cc1`, the inhibition was inactive: -5.52%.

`CC(C)OC(=O)CC1C(=O)NCCN1C(=S)NC(=O)c1cccs1` (centres undefined): the inhibition was inactive: -9.72%.

Take `NC(N)=NC(N)=NCCc1ccccc1`: the inhibition is inactive: -2.33%.

In the case of `CC(NC(=O)c1cccnc1)C(=O)O` (centres undefined), the inhibition was inactive: 14.8%.

As for `Cc1csc(-c2coc3cc(O)cc(C)c3c2=O)n1`, the inhibition was inactive: 11%.

Consider `COc1ccc(NC(=O)C2C(=O)N(CCO)C3(C)CC2c2ccccc2O3)cc1` (centres undefined), for which the inhibition is inactive: 4.92%.

Consider `Cc1ccc(S(=O)(=O)n2ccnc2)cc1C`, for which the inhibition is inactive: -6.19%.

For `Cc1ncc(C(=O)O)c(C(=O)O)c1N`, the inhibition was inactive: -18.8%.

For `CN1CCN(CCCN2c3ccccc3Sc3ccc(C(F)(F)F)cc32)CC1`, the inhibition was active: 67.4%.

Regarding `CC(C)CC(NC(=O)C1CCCN1C(=O)OC(C)(C)C)C(=O)NCC(N)=O` (stereo not drawn) (Boc-Pro-Leu-Gly-NH2; configuration not given here), the inhibition was inactive: -6.74%.

For the compound `CC(C)[N+]1(C)[C@@H]2CC[C@H]1CC(OC(=O)C(CO)c1ccccc1)C2` (some centres undefined), the inhibition is inactive: -1.24%.

As to `C[N+]1(C2CCC3CCCC2C3O)CCCCC1` (centres undefined), the inhibition was inactive: -13.3%.

On to `CNC[C@H](O)c1ccc(O)c(O)c1`, for which the inhibition was inactive: -2.68%.

In the case of `COC(=O)c1cc(OC)c(OC)cc1NC(=O)CN1C(=O)c2ccccc2C1=O`, the inhibition is inactive: -0.366%.

For `CN(C(=O)C(Cl)Cl)c1ccc(OC(=O)c2ccco2)cc1`, the inhibition was inactive: 3.28%.

On to `Cc1oc2c(CN3CCCC3)c(O)ccc2c(=O)c1-c1ccc(Cl)cc1`, for which the inhibition is inactive: 2.93%.

Take `CN(C)CCOC(C)(c1ccccc1)c1ccccn1` (centres undefined): the inhibition was inactive: -11.3%.

Regarding `Cc1ccc(Nc2ncccc2C(=O)O)cc1C`, the inhibition was inactive: 2.06%.

With `Cc1cc(=O)[nH]c(=S)[nH]1`, the inhibition was inactive: -5.96%.

For `O=C(CCCCCCCC(=O)c1ccccc1)c1ccccc1`, the inhibition is inactive: 2.66%.

As for `C=C(C)Cn1c(NCCOC)nc2c1c(=O)[nH]c(=O)n2C`, the inhibition is inactive: 7.63%.

With `COc1cc2c(cc1OC)/C(=C/c1ccc(Cl)cc1)C(=O)OC2`, the inhibition was inactive: 7.04%.

Turning to `CC(=O)c1ccc(CCCCCCCCCC(=O)O)s1`, the inhibition is inactive: -16.6%.

For `COC(=O)c1[nH]c(=O)c2ccccc2c1O`, the inhibition was inactive: -2.42%.

Regarding `CC(=O)N/C(=C/c1ccc2c(c1)OCO2)C(=O)NCCO`, the inhibition was inactive: -14.2%.

As to `CCc1nc2ccccc2c(NC(=O)CN2CC(C)CC(C)C2)c1C` (centres undefined), the inhibition is inactive: -5.82%.

With `COC(=O)c1cc(-c2ccc(OC)c(OC)c2)on1`, the inhibition is inactive: -6.12%.

Take `COc1ccc(/C=C/C(=O)Nc2ccccc2C(=O)O)cc1OC`: the inhibition is inactive: -9.71%.

With `Oc1ccc(/C=C/c2cc(O)cc(O)c2)cc1`, the inhibition is inactive: 2.23%.

With `COc1ccc(C(=O)/C=C2/c3ccccc3CC(C)(C)N2C)cc1`, the inhibition is inactive: -0.22%.

Consider `O=C(CCC(=O)NCCO)NCCO`, for which the inhibition is inactive: 4.45%.

Regarding `CNc1nc(Nc2ccccc2)nc(OCC(F)(F)F)n1`, the inhibition was inactive: 0.049%.

Regarding `COc1cccc(OC)c1C(=O)NCCSC1CCCCC1`, the inhibition was inactive: 1.35%.

Take `Oc1c(Cl)cc(Cl)c(Cl)c1Cc1c(O)c(Cl)cc(Cl)c1Cl`: the inhibition is inactive: -0.573%.

For the compound `COc1cccc(-n2c(C)c3c(OC)cccc(=O)c3c2C)c1`, the inhibition is inactive: -114%.

On to `COc1ccc2[nH]c3c(=O)n(/N=C/[C@H]4C(C)C=C(C)CC4C)c(=O)[nH]c3c2c1` (some centres undefined), for which the inhibition is inactive: -7.95%.

For `COc1cc2c(cc1OC)C(c1cc(OC)c(OC)c(OC)c1)NCC2` (centres undefined), the inhibition was inactive: -6.09%.

For the compound `CSCCC(NC(=O)OC(C)(C)C)C(=O)Oc1ccc2c(=O)c(-c3ccc4c(c3)OCCO4)coc2c1` (centres undefined), the inhibition was inactive: 2.21%.

Take `CN(C)C(=O)C(CCN1CCC(O)(c2ccc(Cl)cc2)CC1)(c1ccccc1)c1ccccc1`: the inhibition is inactive: 11.1%.

Turning to `Cn1c(=O)[nH]c2nnc(-c3ccc(Cl)c(Cl)c3)nc2c1=O`, the inhibition was inactive: -2.22%.

Take `C=CCOc1ccc(C(=O)CC)cc1OC`: the inhibition is inactive: 16%.

Consider `CC(C(=O)O)c1ccc(-c2ccccc2)c(F)c1` (centres undefined), for which the inhibition is inactive: -20.1%.

In the case of `O=C(CCCC(=O)OCC1CCCO1)OCC1CCCO1` (centres undefined), the inhibition is inactive: -2.58%.

For `Cn1c(=O)c2nc3ccccc3nc2n(C)c1=O`, the inhibition was inactive: -13.2%.

As for `COc1ccc(/C=N\NC(=O)CCc2c(C)n[nH]c2C)c(OC)c1OC`, the inhibition is inactive: 7.8%.

For the compound `CC(=O)N1N=C(c2cccs2)CC1c1ccc(C)o1` (centres undefined), the inhibition was inactive: -4.26%.

With `O=C(Cc1c[nH]c2ccccc12)OCCOC(=O)Cc1c[nH]c2ccccc12`, the inhibition is inactive: 2.87%.

Take `Cc1cc(=O)oc(C)c1C(=O)NCCC(C)C`: the inhibition was inactive: -7.13%.

As to `O=C(O)CC(O)C(=O)O` (centres undefined), the inhibition was inactive: 4.23%.

On to `Cc1ccsc1/C=N\NC(=O)c1ccc2c(c1)OCO2`, for which the inhibition was inactive: -4.72%.

As for `CNCCCC1c2ccccc2C=Cc2ccccc21`, the inhibition is inactive: 2.81%.

Take `CC(C)N(Cc1nccn1C)C(=O)CC1C(=O)NCCN1Cc1ccccc1C(F)(F)F` (centres undefined): the inhibition was inactive: -12%.

On to `C[C@]12CCC(=O)C=C1CC[C@@H]1[C@@H]2[C@@H](O)C[C@@]2(C)[C@H]1CC[C@]2(O)C(=O)CO`, for which the inhibition is inactive: -8.66%.

Consider `O=C(Nc1cccc(C(=O)O)c1)/C(=C\c1ccccc1)NC(=O)c1ccccc1`, for which the inhibition is inactive: -4.18%.

Consider `CC(=O)N1CCN(c2ccc(NC(=O)/C=C/c3ccccc3)cc2)CC1`, for which the inhibition is inactive: -1.72%.
